Test results reported in PubChem BioAssay AID1671190 (National Center for Advancing Translational Sciences (NCATS), 2021).
Out of some 580,000 compounds screened, about 6,100 (1.1%) were called active. Inconclusive means that the source gave no clear call. Such entries were picked first, then a sample of the others. Calls follow the shape of the dose curve; as a rule, active = well fitted inhibition curve with a large enough effect; inconclusive = small, poorly fitted or top-dose-only effect, or another doubt; inactive = no such curve, though single readings can be large or run the other way. Potencies beside an inconclusive call are fits to weak or partial responses and may not hold up.

The chains behind the UniProt entries cited, without tags or fusion partners. Where a name states a change or a piece, a line headed by the entry shows the natural chain unless it says otherwise.
UniProt P18054: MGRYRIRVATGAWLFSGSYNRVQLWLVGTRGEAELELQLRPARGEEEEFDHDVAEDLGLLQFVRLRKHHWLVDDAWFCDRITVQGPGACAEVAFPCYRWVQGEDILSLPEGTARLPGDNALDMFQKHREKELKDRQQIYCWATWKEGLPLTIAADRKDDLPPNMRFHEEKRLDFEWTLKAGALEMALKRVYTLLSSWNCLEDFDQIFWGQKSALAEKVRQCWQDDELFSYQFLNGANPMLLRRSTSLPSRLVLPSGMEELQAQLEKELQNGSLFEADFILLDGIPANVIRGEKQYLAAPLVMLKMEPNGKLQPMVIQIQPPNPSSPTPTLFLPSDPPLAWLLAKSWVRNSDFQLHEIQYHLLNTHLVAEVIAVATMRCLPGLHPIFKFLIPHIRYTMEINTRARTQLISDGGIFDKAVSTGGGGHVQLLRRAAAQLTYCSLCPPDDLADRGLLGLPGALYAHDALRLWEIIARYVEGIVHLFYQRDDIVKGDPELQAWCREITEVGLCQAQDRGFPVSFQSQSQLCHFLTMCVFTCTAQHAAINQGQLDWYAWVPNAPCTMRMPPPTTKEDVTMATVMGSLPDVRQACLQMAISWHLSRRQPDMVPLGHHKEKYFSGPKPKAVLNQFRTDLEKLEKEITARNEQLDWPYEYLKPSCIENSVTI

Target: Polyunsaturated fatty acid lipoxygenase ALOX12 (Homo sapiens) (UniProt P18054)
Assay: Primary qHTS assay for inhibitors of human arachidonate 12S-lipoxygenase (ALOX12): Round 2
Conditions: purified 12hLO, xylenol orange hydroperoxide absorbance; series mostly up to 108 µM
Outline: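 Purified human 12hLO at 150 nM in 25 mM Hepes, 0.01% Triton X-100, pH 7.0, preincubated 15 min at room temperature with compound. Reaction started with 40 uM arachidonic acid, 30 min at room temperature. Hydroperoxide measured by Fe-xylenol orange, 573/405 nm absorbance ratio.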
Potency is read from the fitted curve at half-maximal effect.

| SMILES | Potency |
| --- | --- |
| Cc1cccc(CCNS(=O)(=O)c2ccc3c(c2)n(C)c(=O)c(=O)n3C)c1 | inconclusive: 126 µM [inhibitor, single point] |
| CCOC1=C2[C@H](c3ccccc3)N(S(=O)(=O)c3ccccc3)C[C@H]2n2c(=O)n(-c3ccccc3)c(=O)n2C1 | inconclusive: 126 µM [inhibitor, single point] |
| CC(C)N1C[C@H](O)C[C@H]1c1nnc2n1CCN(C(=O)CCc1ccccc1)CC2 | inactive |
| CC(c1ccon1)N(C)C(=O)c1cc(CN2CCC(Cc3ccccc3)CC2)on1 (stereo not given) | inconclusive: 79.4 µM [inhibitor, single point] |
| CC(=O)Nc1ccc(-c2nc3ccccc3o2)cc1 | inconclusive: 1.78 µM [inhibitor, full curve, poor fit] |
| Cc1nc(N2CCCC2)c2c(C(=O)Nc3ccc(Br)cc3F)c(C)oc2n1 | inconclusive: 56.2 µM [inhibitor, partial curve, poor fit] |
| Cn1ccnc1CN1C(=O)CO[C@H](c2ccc(NS(=O)(=O)Cc3ccccc3)cc2)[C@H]1CO | inactive |
| CC1CN(C(=O)COC(=O)c2cccc(S(=O)(=O)N3CCc4ccccc43)c2)CC(C)O1 (stereo not given) | inconclusive: 39.8 µM [inhibitor, partial curve, poor fit] |
| CNC(=O)C(C)(C)N1CCC[C@H]1C(=O)NCCc1ccccc1 | inconclusive: 3.98 µM [inhibitor, full curve] |
| CCOc1ccc(NC2=C(OC)C(=O)c3ccccc3C2=O)cc1 | inactive |
| Cc1ccc(Nc2n[nH]c(=S)s2)cc1F | active: 39.8 µM |
| COc1ccc(NC(=O)C2C(c3ccccc3)C2(Cl)Cl)c(OC)c1 (stereo not given) | inconclusive: 1 µM [inhibitor, full curve, poor fit] |
| CN(C)C(=O)c1ccc(-c2cc(NCc3cccs3)ncn2)cc1 | inconclusive: 35.5 µM [inhibitor, partial curve] |
| CCOCCSc1nc2c(c(=O)[nH]c(=O)n2C)n1Cc1ccccc1 | inconclusive: 39.8 µM [inhibitor, partial curve, poor fit] |
| Cc1cc(C(F)(F)F)nc(SCC(=O)c2ccccc2)n1 | inconclusive: 39.8 µM [inhibitor, partial curve, poor fit] |
| COc1ccc(-c2csc3nc(-c4ccccc4)oc(=O)c23)cc1OC | inconclusive: 89.1 µM [inhibitor, partial curve, poor fit] |
| O=S(=O)(c1cccc(Br)c1)N1CCOCC1 | inconclusive: 35.5 µM [inhibitor, partial curve, poor fit] |
| CCOCc1c(C(=O)Nc2ccc3nc(N4CCOCC4)sc3c2)oc2ccccc12 | inconclusive: 89.1 µM [inhibitor, single point] |
| COc1cccc(NC(=O)CN(C)C(=O)c2cc(S(=O)(=O)N3CCCCC3)ccc2Cl)c1 | inconclusive: 56.2 µM [inhibitor, partial curve, poor fit] |
| Cc1cccc(-n2c(C)c(-c3ccccc3)[nH]c2=S)c1 | inconclusive: 22.4 µM [inhibitor, partial curve, poor fit] |

3 structures out of the list, arranged by length of the SMILES, ascending.

| SMILES | Potency |
| --- | --- |
| Cc1cc(C(F)(F)F)nc(SCC(=O)c2ccccc2)n1 | inconclusive: 39.8 µM [inhibitor, partial curve, poor fit] |
| COc1ccc(NC(=O)C2C(c3ccccc3)C2(Cl)Cl)c(OC)c1 (stereo not given) | inconclusive: 1 µM [inhibitor, full curve, poor fit] |
| Cn1ccnc1CN1C(=O)CO[C@H](c2ccc(NS(=O)(=O)Cc3ccccc3)cc2)[C@H]1CO | inactive |

(listing goes on)

| SMILES | Potency |
| --- | --- |
| CC(Sc1nc2ccccc2[nH]1)C(=O)NC(=O)NC(C)(C)C (stereo not given) | inconclusive: 56.2 µM [inhibitor, partial curve, poor fit] |
| O=C(c1cc(C(F)(F)F)cc(C(F)(F)F)c1)N1CCC2(CC1)CCN(c1ccccc1)CC2 | inconclusive: 31.6 µM [inhibitor, single point] |
| CC1=CSC2=NC(C(F)(F)F)(C(F)(F)F)NC(=O)N12 | inconclusive: 126 µM [inhibitor, single point] |
| Cc1[nH]c(C=O)c(C)c1C | inconclusive: 28.2 µM [inhibitor, partial curve, poor fit] |
| CCN1CC=C2C(C1)C(c1ccc(Cl)s1)C(C#N)=C(N)C2(C#N)C#N (stereo not given) | inconclusive: 31.6 µM [inhibitor, partial curve, poor fit] |
| Cc1cccc(COc2ccccc2C(=O)O)c1 | inactive |
| COCCn1c(=S)[nH]c2ccccc21 | inactive |
| CCOC(=O)C1=C(C)OC(N)=C(C#N)C1c1cccc(C(F)(F)F)c1 (stereo not given) | inconclusive: 25.1 µM [inhibitor, partial curve, poor fit] |
| O=C(NCc1n[nH]c(=S)n1-c1ccc(Br)cc1)c1ccc(S(=O)(=O)N2CCCC2)cc1 | inconclusive: 63.1 µM [inhibitor, partial curve, poor fit] |
| CCCCn1c(N)c(N(CC)C(=O)CCNC(=O)NC23CC4CC(CC(C4)C2)C3)c(=O)[nH]c1=O | inactive |
| Cc1ccc2nc(N/N=C/c3ccccc3F)nc(-c3ccccc3)c2c1 | inactive |
| O=C1NCc2ccccc2CC12CCN(Cc1ccc(Br)s1)CC2 | inconclusive: 44.7 µM [inhibitor, full curve, poor fit] |
| O=C(NCC1CCCO1)c1c(O)c2c([nH]c1=O)CCCC2 (stereo not given) | inconclusive: 25.1 µM [inhibitor, partial curve, poor fit] |
| COc1ccc(CNCCC(c2ccc(F)cc2)c2ccc(OC)cc2)cc1 (stereo not given) | inconclusive: 50.1 µM [inhibitor, partial curve] |
| CCCCc1ccc(NC(=O)CSc2nc(=O)n(CCN(C)C)c3c2CCC3)cc1 | inconclusive: 100 µM [inhibitor, partial curve, poor fit] |
| Oc1ccc(NCc2cccs2)cc1 | inconclusive: 31.6 µM [inhibitor, partial curve, poor fit] |
| S=C(Nc1ccccc1)Nn1cnnc1 | inconclusive: 79.4 µM [inhibitor, partial curve, poor fit] |
| O=C(NCc1ccc2c(c1)OCO2)C1CC(c2ccccc2)CN(C(=O)NCc2ccccc2)C1 (stereo not given) | inconclusive: 17.8 µM [inhibitor, full curve] |
| Cc1ccc(C(=NC(=O)c2cccs2)c2ccccc2)cc1 | inactive |
| COc1ccc(-c2c(C(F)(F)F)oc3cc(OC(C)=O)ccc3c2=O)cc1OC | inconclusive: 63.1 µM [inhibitor, partial curve, poor fit] |
